# Measured values as given in PMC7819943, “Rice protein-binding microarrays: a tool to detect cis-acting elements near promoter regions in rice”.
# Sequences of proteins named here, by UniProt entry; tags and fusion partners are left off.
# UniProt Q0JBA9, entry or part of it: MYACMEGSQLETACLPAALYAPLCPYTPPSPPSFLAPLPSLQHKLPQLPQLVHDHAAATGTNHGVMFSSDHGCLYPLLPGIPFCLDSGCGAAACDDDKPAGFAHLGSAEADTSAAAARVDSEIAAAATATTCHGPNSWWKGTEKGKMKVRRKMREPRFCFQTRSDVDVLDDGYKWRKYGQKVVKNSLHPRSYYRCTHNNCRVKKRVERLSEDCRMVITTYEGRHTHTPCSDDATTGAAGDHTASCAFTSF
# The other results are listed elsewhere or left out.
# Molecular target: OsWRKY34 (Oryza sativa, UniProt Q0JBA9 1-250)
# Assay: protein-binding microarray (RPBM); PBS, 2% BSA, 51.3 ng/ul salmon testes DNA, 50 uM zinc acetate, 200 nM TF, 25 C, 1 h; high values mean tight binding
# Conditions: protein: recombinant; tags: N-terminal polyhistidine and DsRed monomer fusion (pET32a); label: CyDye5-dUTP incorporated in the synthesized complementary strand; 3' TTTTT single-stranded linker to array surface; dsDNA, one strand shown
# Outline: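 Transcription factors, each fused N-terminally to a polyhistidine tag and DsRed, were expressed in E. coli BL21-CodonPlus and purified on Ni–NTA. A custom Agilent array was made double-stranded by primer extension with Cy5-dUTP and blocked with 2% BSA. It was incubated with 200 nM protein in PBS, 2% BSA, salmon testes DNA and 50 µM zinc acetate at 25 °C for 1 h, then washed. The binding signal is per-feature fluorescence intensity (arbitrary units) read on an Axon 4000B scanner.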
row,Sequence,binding signal
1,CTTTTATTTGGTGTATGCAATTTTCTACAGCGCTGCTATACGGAGTCACCTAGTGCAG,8840 fluorescence intensity (a.u.)
2,TTGTTGCACATTTGTGTTCTTCATAACTCTATTTATGTCACGGAGTCACCTAGTGCAG,8110 fluorescence intensity (a.u.)
3,ATGACGCCGTTGACTTTTTGTCCAACGACCATTCATTTTACGGAGTCACCTAGTGCAG,31300 fluorescence intensity (a.u.)
4,GCTGCACAGGGCAAGCTCATTGCCTATATACCTCATTTTACGGAGTCACCTAGTGCAG,8030 fluorescence intensity (a.u.)
5,GCAGCAACAACCGCCGCGCCATTGATGACTAATTGAGATCCGGAGTCACCTAGTGCAG,8060 fluorescence intensity (a.u.)
6,GCACCGCATTTCTCCCAAGCCTTGCCGGCTTCTCTTCTCTCGGAGTCACCTAGTGCAG,9420 fluorescence intensity (a.u.)
7,TCCAGGGAGCCGCGGTGGCATATGTTGCTGACATGTTTTCCGGAGTCACCTAGTGCAG,8190 fluorescence intensity (a.u.)
8,GCGGAGGAGGTGGTGGTGGTGGAGGAGGAGGAGGCCAAGGCGGAGTCACCTAGTGCAG,19300 fluorescence intensity (a.u.)
9,CCAGATTTTAACATGTTTTACTGCCTTACACGTCCACTGTCGGAGTCACCTAGTGCAG,9800 fluorescence intensity (a.u.)
10,GGTTAGTATTGTGTGTGCGTTTGCGTGAACCATGTAATATCGGAGTCACCTAGTGCAG,8180 fluorescence intensity (a.u.)
11,GACTCTGCTCCAGTTGACCAGTACTCGATACTCGTGTGTTCGGAGTCACCTAGTGCAG,10200 fluorescence intensity (a.u.)
12,GGGTGTATTTATATTTCTTTTTCTAATTTTCGGGATGTTTCGGAGTCACCTAGTGCAG,9970 fluorescence intensity (a.u.)
13,TAACCGCTCATATGCTCTATACTATATGTCTATATCCAACCGGAGTCACCTAGTGCAG,8620 fluorescence intensity (a.u.)
14,TGATTTGTCTCTCGGCTGGGGCCGCGGCTTCTCCTCCCCACGGAGTCACCTAGTGCAG,8860 fluorescence intensity (a.u.)
15,CCGTAGCCGTAACACGATCTCCAACTTTCCTCGTGGGCTCCGGAGTCACCTAGTGCAG,8030 fluorescence intensity (a.u.)
16,TATAGTAATTTGAGTTTTATTTGTTATTTTTGTTACAATCCGGAGTCACCTAGTGCAG,9250 fluorescence intensity (a.u.)
17,TTGGATCATTTTTTTCGACAGATGCGTACTTCCTTCCTCTCGGAGTCACCTAGTGCAG,8790 fluorescence intensity (a.u.)
18,GTTAGATCCAATTTTACACCCCATCACATCGAACGTTTGACGGAGTCACCTAGTGCAG,8120 fluorescence intensity (a.u.)
19,CAGAGGTATAGATTCCCCACCCCGCCGCCTCCACGCATTCCGGAGTCACCTAGTGCAG,9470 fluorescence intensity (a.u.)
20,ATAAATATGTAGCTATAGCTTCTCTGCTTTCCGTCGCTTACGGAGTCACCTAGTGCAG,8850 fluorescence intensity (a.u.)
21,CGCGATACATCGATCTCCTCTGCTTCCGATTCCGACATGACGGAGTCACCTAGTGCAG,8840 fluorescence intensity (a.u.)

# Reprinted at random: two entries already listed.
row,Sequence,binding signal
19,CAGAGGTATAGATTCCCCACCCCGCCGCCTCCACGCATTCCGGAGTCACCTAGTGCAG,9470 fluorescence intensity (a.u.)
13,TAACCGCTCATATGCTCTATACTATATGTCTATATCCAACCGGAGTCACCTAGTGCAG,8620 fluorescence intensity (a.u.)

# The results go on.

row,Sequence,binding signal
1,GAACACTCTTTAGGCTGTTCGGCAATTTGGGTAGGGAACTCGGAGTCACCTAGTGCAG,8192 fluorescence intensity (a.u.)
2,CATCTTATTATTGGGGATTGGTGGTTTTAGCCAATGGCCGCGGAGTCACCTAGTGCAG,10500 fluorescence intensity (a.u.)
3,ACCTTTTGCAAAACCAGGTCAAGTCCACTCCTCGCATTCTCGGAGTCACCTAGTGCAG,9040 fluorescence intensity (a.u.)
4,TCTGCTGTTGTTTTAGTACTCCAAAAATCTATCCTGCCCACGGAGTCACCTAGTGCAG,8640 fluorescence intensity (a.u.)
5,ATTTCATTTTCCATTTATTCCATGTGTATTTCTGTTTTCACGGAGTCACCTAGTGCAG,13000 fluorescence intensity (a.u.)
6,TAACTCGTTTTGTAGTATGTCCTGGGATTTCAAGTTTCTTCGGAGTCACCTAGTGCAG,9190 fluorescence intensity (a.u.)
7,CTTCTGCTCTTCTTCTGGATCTTGTTGATGTGGGTGTTTCCGGAGTCACCTAGTGCAG,11200 fluorescence intensity (a.u.)
8,CACATCCATATTTGCAATTAATTTACAACCTAATTTACATCGGAGTCACCTAGTGCAG,9070 fluorescence intensity (a.u.)
9,TATGATTGTTTTAACTTTTAACTGTTCTGCGTGTTTATTACGGAGTCACCTAGTGCAG,10700 fluorescence intensity (a.u.)
10,TATTCCTTTCTCCTTCCTGTCCCTTGTCGCCGGATTGCAACGGAGTCACCTAGTGCAG,10400 fluorescence intensity (a.u.)
11,TTATACGACTTTATACATGTACACATGCTTATATGCTCTCCGGAGTCACCTAGTGCAG,9180 fluorescence intensity (a.u.)
12,CACGCGCCATGCCCGCTCCAGCTCCACATATTTACGTTGCCGGAGTCACCTAGTGCAG,11800 fluorescence intensity (a.u.)
13,ATATAGCTTGCTTGTTCGGTTGTTCCACTGTTCCGTGAGGCGGAGTCACCTAGTGCAG,8310 fluorescence intensity (a.u.)
14,CAAGTAGCCAATCCGAACGCATCCCCGTCTTTCTTTCTTTCGGAGTCACCTAGTGCAG,12400 fluorescence intensity (a.u.)
15,ACATGCGTACAACGAGCCGTATTTTTTTTCCCTTGCATCACGGAGTCACCTAGTGCAG,8210 fluorescence intensity (a.u.)
16,GCCTATACCCTCTGCTGTCCGCACCCGTTTTTCTACTGGACGGAGTCACCTAGTGCAG,8040 fluorescence intensity (a.u.)
17,TTTCTGAAGACCAAACTGCTTCTAATTCTTCTTCTTCTTCCGGAGTCACCTAGTGCAG,8930 fluorescence intensity (a.u.)
18,GTTTGACATGCAGACTTGATTCTATCACCTATAGCATCTGCGGAGTCACCTAGTGCAG,28100 fluorescence intensity (a.u.)
19,AGATGACGCCATTGACTTTTTCTCACATGTTTGACCATTCCGGAGTCACCTAGTGCAG,15800 fluorescence intensity (a.u.)
20,CAGCGCTGCCGCAGATAGGACGCCCTAACTTTGATCATCTCGGAGTCACCTAGTGCAG,8920 fluorescence intensity (a.u.)
21,CTAGCGGCTTCCTCTCCATGCGCCAGGGCCTCGACACCGCCGGAGTCACCTAGTGCAG,9510 fluorescence intensity (a.u.)
